From patent US12116636B2, “Methods for evaluating tumor cell spheroids using 3D microfluidic cell culture device” (Dana-Farber Cancer Institute, Inc., priority 2017, dated 2024)

Tested on: T1, off-target kinases
T1 construct: IC50 (nM); other: Adapta, ATP Km app; Hillslope; LRRK2: PV4873/1106714; IRAK1: PV4403/880118
Assay: SelectScreen Kinase Profiling, IC50 for off-target kinases
Format: biochemical
Details: Adapta, ATP Km app

## N#Cc1cc(-c2ncnc(Nc3ccc(N4CCN(C5COC5)CC4)cc3)n2)ccc1OC1CCOCC1 [Compound 1, 5-(4-((4-(4-(oxetan-3-yl)piperazin-1-yl)phenyl)amino)-1,3,5-triazin-2-yl)-2-((tetrahydro-2H-pyran-4-yl)oxy)benzonitrile]
  Hillslope: 0.99 and 1

Where “and” joins values, the source holds several entries; their conditions need not be identical. Equal entries are not always repeated.
